From article PMC8079274
No constants are given. Whether binding was seen depends on the method and setting. Binding seen in cells or lysates may run through a third protein. Some results given as binding are weak or reduced against the parent protein; the word gives no strength.

Biological target: T1, KSR1 in KSR1+/+ mouse embryo fibroblasts (cells that overexpress KSR1) (UniProt Q61097)
T1 sequence: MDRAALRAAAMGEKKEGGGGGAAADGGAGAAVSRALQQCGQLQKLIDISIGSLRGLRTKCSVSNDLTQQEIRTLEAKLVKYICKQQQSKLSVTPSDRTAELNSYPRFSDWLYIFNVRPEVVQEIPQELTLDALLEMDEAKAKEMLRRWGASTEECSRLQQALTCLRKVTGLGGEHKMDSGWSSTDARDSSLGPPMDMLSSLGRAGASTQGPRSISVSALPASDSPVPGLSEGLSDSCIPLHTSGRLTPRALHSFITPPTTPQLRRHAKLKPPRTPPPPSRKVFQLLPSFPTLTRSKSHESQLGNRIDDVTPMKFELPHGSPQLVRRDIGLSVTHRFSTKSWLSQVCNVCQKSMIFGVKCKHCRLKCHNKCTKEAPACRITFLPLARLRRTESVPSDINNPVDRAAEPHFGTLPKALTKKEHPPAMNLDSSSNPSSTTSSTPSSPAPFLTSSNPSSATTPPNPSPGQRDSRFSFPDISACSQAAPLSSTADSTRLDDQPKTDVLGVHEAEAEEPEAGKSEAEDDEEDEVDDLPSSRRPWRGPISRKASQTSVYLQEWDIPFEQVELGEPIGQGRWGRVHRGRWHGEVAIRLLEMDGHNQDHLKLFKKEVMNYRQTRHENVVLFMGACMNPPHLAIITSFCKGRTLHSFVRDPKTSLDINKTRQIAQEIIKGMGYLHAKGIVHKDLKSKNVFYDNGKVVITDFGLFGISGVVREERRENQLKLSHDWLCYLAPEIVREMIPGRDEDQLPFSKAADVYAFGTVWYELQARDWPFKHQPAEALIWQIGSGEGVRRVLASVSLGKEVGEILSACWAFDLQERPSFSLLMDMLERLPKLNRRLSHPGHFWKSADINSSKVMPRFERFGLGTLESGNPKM
Experiment: co-IP; serum-starved KSR1+/+ MEFs with vehicle or 40 μM CGS9343B for 16 h; 1 mg lysate precipitated with anti-KSR1 antibody, blot for MEK1 or ERK

binding: binds
Substance: endogenous MEK1 (from UniProt P31938 1-393)
